{"source": "PubChem BioAssay AID504764 (Drosophila RNAi Screening Center, 2011)", "aim": "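Genes whose knock-down alters Notch-dependent transcription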 (primary screen)", "system": "Drosophila Kc167 cells", "knock-down reagent": "long dsRNA against Drosophila genes", "duration": "about 5 days (4 days dsRNA, then 24 h after transfection)", "conditions": "transfection of constitutively active membrane-tethered Notch lacking the extracellular domain, read 24 h later", "measured": "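Light from a Notch-responsive E(spl)m3 luciferase reporter under active Notch, with control-promoter and no-Notch reporter wells to normalise; raw counts from paired wells a and b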", "reading the numbers": "induced reporter light, run 1, well a and induced reporter light, run 1, well b: higher = more light from the Notch target reporter with active Notch; control promoter light, run 1, well a and control promoter light, run 1, well b: higher = more light from the viral control promoter (cell number, transfection, viability); uninduced reporter light, run 1, well a: higher = more light from the Notch target reporter without active Notch", "active means": "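Hit if the duplicate-averaged log2 ratio of induced to control-promoter light gives a plate-wise z beyond ±2, or induced to uninduced beyond ±1.8; weak-control or discordant-duplicate wells dropped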", "meaning of the calls": "active = modifier hit (raised or lowered Notch signal); inactive = not a hit", "note": "The screen tested about 22,000 reagents; below is a random part of those with a known target gene and a result. Over the whole deposit, 403 (1.9%) were called active. 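Unnormalised raw counts per well; ratio z-scores behind the hit calls and whether each hit raises or lowers signal are not deposited.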 Entries without a mark were called inactive. Reagent sequences are not shown. The record does not give: the amount of reagent."}
{"gene": "CG3566", "DRSC id": "DRSC18311", "induced reporter light, run 1, well a": 1.55e5, "induced reporter light, run 1, well b": 1.84e5, "control promoter light, run 1, well a": 4.05e5, "control promoter light, run 1, well b": 2.83e5, "uninduced reporter light, run 1, well a": 12905}
{"gene": "CG16762", "DRSC id": "DRSC08493", "induced reporter light, run 1, well a": 1.05e5, "induced reporter light, run 1, well b": 1.06e5, "control promoter light, run 1, well a": 1.49e5, "control promoter light, run 1, well b": 1.69e5, "uninduced reporter light, run 1, well a": 8575}
{"gene": "CG42324", "DRSC id": "DRSC08431", "induced reporter light, run 1, well a": "2.43e5 (active)", "induced reporter light, run 1, well b": 2.02e5, "control promoter light, run 1, well a": 1.78e5, "control promoter light, run 1, well b": 1.76e5, "uninduced reporter light, run 1, well a": 7965}
{"gene": "CG42324", "DRSC id": "DRSC08432", "induced reporter light, run 1, well a": 1.00e5, "induced reporter light, run 1, well b": 1.12e5, "control promoter light, run 1, well a": 1.62e5, "control promoter light, run 1, well b": 1.49e5, "uninduced reporter light, run 1, well a": 4820}
{"gene": "Membrin", "DRSC id": "DRSC10448", "induced reporter light, run 1, well a": 2.89e5, "induced reporter light, run 1, well b": 2.18e5, "control promoter light, run 1, well a": 2.80e5, "control promoter light, run 1, well b": 2.62e5, "uninduced reporter light, run 1, well a": 10635}
{"gene": "CG34338", "DRSC id": "DRSC17535", "induced reporter light, run 1, well a": 88510, "induced reporter light, run 1, well b": 1.03e5, "control promoter light, run 1, well a": 1.00e5, "control promoter light, run 1, well b": 87035, "uninduced reporter light, run 1, well a": 6820}
{"gene": "Mvl (Malvolio)", "DRSC id": "DRSC16752", "induced reporter light, run 1, well a": 1.62e5, "induced reporter light, run 1, well b": 1.48e5, "control promoter light, run 1, well a": 1.94e5, "control promoter light, run 1, well b": 2.23e5, "uninduced reporter light, run 1, well a": 14940}
{"gene": "Theg (Testicular haploid expressed gene)", "DRSC id": "DRSC16023", "induced reporter light, run 1, well a": 1.68e5, "induced reporter light, run 1, well b": 1.83e5, "control promoter light, run 1, well a": 2.60e5, "control promoter light, run 1, well b": 2.67e5, "uninduced reporter light, run 1, well a": 16655}
{"gene": "CG40486", "DRSC id": "DRSC20619", "induced reporter light, run 1, well a": 1.74e5, "induced reporter light, run 1, well b": 1.41e5, "control promoter light, run 1, well a": 1.12e5, "control promoter light, run 1, well b": 85370, "uninduced reporter light, run 1, well a": 9395}
{"gene": "RhoGAP5A (Rho GTPase activating protein at 5A)", "DRSC id": "DRSC18294", "induced reporter light, run 1, well a": 1.92e5, "induced reporter light, run 1, well b": 1.76e5, "control promoter light, run 1, well a": 2.28e5, "control promoter light, run 1, well b": 2.34e5, "uninduced reporter light, run 1, well a": 12810}
{"gene": "lin-52", "DRSC id": "DRSC18106", "induced reporter light, run 1, well a": 1.22e5, "induced reporter light, run 1, well b": 1.18e5, "control promoter light, run 1, well a": 2.72e5, "control promoter light, run 1, well b": 2.81e5, "uninduced reporter light, run 1, well a": 11200}
{"gene": "CG6204", "DRSC id": "DRSC15991", "induced reporter light, run 1, well a": 2.05e5, "induced reporter light, run 1, well b": 2.24e5, "control promoter light, run 1, well a": 2.41e5, "control promoter light, run 1, well b": 2.86e5, "uninduced reporter light, run 1, well a": 14020}

Reagents listed above with an active call, once more:
{"gene": "CG42324", "DRSC id": "DRSC08431", "induced reporter light, run 1, well a": "2.43e5 (active)", "induced reporter light, run 1, well b": 2.02e5, "control promoter light, run 1, well a": 1.78e5, "control promoter light, run 1, well b": 1.76e5, "uninduced reporter light, run 1, well a": 7965}
